Results as given in the supplement of paper PMC10727501.
The other results are listed elsewhere or left out. This data set is noisy: repeats of one test often differ as much as different tests do.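 Researchers measured free-swimming zebrafish larvae's O-bend response probability to dark flashes (naive: first five; training: remaining flashes of four 60-flash blocks; test: later 60-flash block) and OMR turning toward alternating leftward/rightward LED motion. Six treated larvae were compared to sixty 0.1% DMSO controls, with |SSMD|≥2 marking a hit.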

Key:
Conditions in all cases: 10 µM; pre-incubation: 30-90 min
[1] = tested on: Danio rerio larvae (5 dpf, TLF); test: OMR-Perf (SSMD vs DMSO vehicle); higher = higher than vehicle (e.g. higher dark-flash O-bend response probability, or better optomotor performance)
[2] = tested on: Danio rerio larvae (5 dpf, TLF); test: Prob-Test (SSMD vs DMSO vehicle); higher = higher than vehicle (e.g. higher dark-flash O-bend response probability, or better optomotor performance)
[3] = tested on: Danio rerio larvae (5 dpf, TLF); test: Prob-Naive (SSMD vs DMSO vehicle); higher = higher than vehicle (e.g. higher dark-flash O-bend response probability, or better optomotor performance)
[4] = tested on: Danio rerio larvae (5 dpf, TLF); test: Prob-Train (SSMD vs DMSO vehicle); higher = higher than vehicle (e.g. higher dark-flash O-bend response probability, or better optomotor performance)

CC(C)(C)C(=O)C(Oc1ccc(Cl)cc1)n1ccnc1 (stereo not given) [Climbazole]
OMR-Perf [1]: -0.26
Prob-Test [2]: 0.052
Prob-Naive [3]: 0.105
Prob-Train [4]: 0.169

CC(C)(C#N)c1cc(Cn2cncn2)cc(C(C)(C)C#N)c1 [Anastrozole]
OMR-Perf [1]: -0.266
Prob-Test [2]: -0.215
Prob-Naive [3]: -0.138
Prob-Train [4]: -0.214

O=C1NC(=O)C(c2ccccc2[N+](=O)[O-])=C1Nc1ccc(O)c(Cl)c1
OMR-Perf [1]: 0.121
Prob-Test [2]: -0.155
Prob-Naive [3]: -0.13
Prob-Train [4]: 0.22

Cc1ccc(Nc2nccc(N(C)c3ccc4c(C)n(C)nc4c3)n2)cc1S(N)(=O)=O.Cl
OMR-Perf [1]: 0.81
Prob-Test [2]: -0.0165
Prob-Naive [3]: -0.288
Prob-Train [4]: -0.532

CC(O)(P(=O)(O)O)P(=O)(O)O [Etidronate (Didronel)]
OMR-Perf [1]: -0.594
Prob-Test [2]: -0.307
Prob-Naive [3]: 0.549
Prob-Train [4]: -0.535

NC[C@@H]1O[C@H](O[C@H]2[C@H](O)C(O[C@H]3[C@@H](O)[C@H](N)C[C@H](N)[C@H]3O[C@H]3O[C@@H](CN)[C@@H](O)[C@H](O)[C@H]3N)O[C@@H]2CO)[C@@H](N)[C@@H](O)[C@@H]1O.O=S(=O)(O)O (stereo not given in full) [Neomycin sulfate]
OMR-Perf [1]: -0.118
Prob-Test [2]: 0.405
Prob-Naive [3]: -0.187
Prob-Train [4]: 0.478

COc1ccc(-n2nc(C(N)=O)c3c2C(=O)N(c2ccc(N4CCCCC4=O)cc2)CC3)cc1 [Apixaban]
OMR-Perf [1]: 0.538
Prob-Test [2]: 0.324
Prob-Naive [3]: -0.439
Prob-Train [4]: 0.0158

NS(=O)(=O)c1ccc(NC(=O)Nc2ccc(F)cc2)cc1
OMR-Perf [1]: 0.461
Prob-Test [2]: 0.0622
Prob-Naive [3]: -0.646
Prob-Train [4]: 0.0944

C=CC(=O)Nc1cc2c(Nc3ccc(F)c(Cl)c3)ncnc2cc1OCCCN1CCOCC1 [Canertinib (CI-1033)]
OMR-Perf [1]: -0.58
Prob-Test [2]: -1.14
Prob-Naive [3]: -0.115
Prob-Train [4]: -0.837

CC(C)/N=c1/cc2n(-c3ccc(Cl)cc3)c3ccccc3nc-2cc1Nc1ccc(Cl)cc1 [Clofazimine]
OMR-Perf [1]: -0.363
Prob-Test [2]: -0.636
Prob-Naive [3]: -0.134
Prob-Train [4]: -0.211

O=C1Nc2ccc(I)cc2/C1=C\c1cc(Br)c(O)c(Br)c1
OMR-Perf [1]: -0.673
Prob-Test [2]: -0.211
Prob-Naive [3]: 0.0876
Prob-Train [4]: -0.0364

O=c1c(O)c(-c2cc(O)c(O)c(O)c2)oc2cc(O)cc(O)c12 [Myricetin]
OMR-Perf [1]: -0.289
Prob-Test [2]: 0.476
Prob-Naive [3]: -0.119
Prob-Train [4]: 0.611

COc1ccccc1OCC(O)CO (stereo not given) [Guaifenesin]
OMR-Perf [1]: 0.338
Prob-Test [2]: -0.456
Prob-Naive [3]: -0.411
Prob-Train [4]: -0.313

Oc1ccc(Nc2nc(-c3ccc(Cl)cc3)cs2)cc1
OMR-Perf [1]: -0.969
Prob-Test [2]: -0.094
Prob-Naive [3]: -0.332
Prob-Train [4]: -1.43

C[C@@H](N)[C@H]1CC[C@H](C(=O)Nc2ccncc2)CC1.Cl.Cl
OMR-Perf [1]: 0.0236
Prob-Test [2]: 0.0203
Prob-Naive [3]: -0.141
Prob-Train [4]: -0.394

CO[C@H]1/C=C/O[C@@]2(C)Oc3c(C)c(O)c4c(O)c(c(/C=N/N5CCN(C6CCCC6)CC5)c(O)c4c3C2=O)NC(=O)/C(C)=C/C=C/[C@H](C)[C@H](O)[C@@H](C)[C@@H](O)[C@@H](C)[C@H](OC(C)=O)[C@@H]1C [Rifapentine]
OMR-Perf [1]: -0.27
Prob-Test [2]: 0.657
Prob-Naive [3]: 0.493
Prob-Train [4]: 0.704

O=C(O)c1ccccc1 [Benzoic Acid]
OMR-Perf [1]: -0.0599
Prob-Test [2]: 0.598
Prob-Naive [3]: 0.306
Prob-Train [4]: -0.0497

Cc1cc(C#N)cc(C)c1Oc1nc(Nc2ccc(C#N)cc2)nc(N)c1Br [Etravirine (TMC125)]
OMR-Perf [1]: 0.0656
Prob-Test [2]: 0.0378
Prob-Naive [3]: -1.38
Prob-Train [4]: -0.8

Cc1cccc(N(C)C(=S)Oc2ccc3ccccc3c2)c1 [Tolnaftate]
OMR-Perf [1]: -1.17
Prob-Test [2]: -1.49
Prob-Naive [3]: -3.55
Prob-Train [4]: -2.66

Cc1cccc(C)c1OCC(C)N.Cl (stereo not given) [Mexiletine HCl]
OMR-Perf [1]: -0.225
Prob-Test [2]: -0.0272
Prob-Naive [3]: -0.314
Prob-Train [4]: -0.128

CC(C)C[C@H](NC(=O)[C@H](CCc1ccccc1)NC(=O)CN1CCOCC1)C(=O)N[C@@H](Cc1ccccc1)C(=O)N[C@@H](CC(C)C)C(=O)[C@@]1(C)CO1 [Carfilzomib (PR-171)]
OMR-Perf [1]: -0.267
Prob-Test [2]: 0.27
Prob-Naive [3]: 0.0343
Prob-Train [4]: 0.422

COc1ccccc1N1CCN(CC(O)COc2cccc3ccccc23)CC1 (stereo not given) [Naftopidil]
OMR-Perf [1]: -0.804
Prob-Test [2]: -0.753
Prob-Naive [3]: -0.296
Prob-Train [4]: -0.577

COc1ccc2c(c1)c(C1=C(c3c[nH]c4ccccc34)C(=O)NC1=O)cn2CCCN(C)C
OMR-Perf [1]: -0.117
Prob-Test [2]: 0.176
Prob-Naive [3]: -0.467
Prob-Train [4]: 0.15

COc1ccc(CC2c3cc(OC)c(OC)cc3CC[N+]2(C)CCC(=O)OCCCCCOC(=O)CC[N+]2(C)CCc3cc(OC)c(OC)cc3C2Cc2ccc(OC)c(OC)c2)cc1OC.O=S(=O)([O-])c1ccccc1.O=S(=O)([O-])c1ccccc1 (stereo not given) [Atracurium Besylate]
OMR-Perf [1]: -0.221
Prob-Test [2]: -0.469
Prob-Naive [3]: -0.193
Prob-Train [4]: -0.604

C=C1c2c(Cl)ccc(O)c2C(O)=C2C(=O)[C@]3(O)C(O)=C(C(N)=O)C(=O)[C@@H](N(C)C)[C@@H]3[C@@H](O)[C@H]12.O=C(O)c1cc(S(=O)(=O)O)ccc1O [Meclocycline Sulfosalicylate]
OMR-Perf [1]: 0.00306
Prob-Test [2]: 0.186
Prob-Naive [3]: 0.0876
Prob-Train [4]: 0.597

C[C@H]1C(=O)O[C@H]2[C@@H](O)C34[C@@H]5C[C@@H](C(C)(C)C)C36[C@@H](OC(=O)[C@H]6O)O[C@]4(C(=O)O5)[C@@]12O (stereo not given in full) [Ginkgolide B]
OMR-Perf [1]: -0.536
Prob-Test [2]: 0.336
Prob-Naive [3]: 0.233
Prob-Train [4]: -0.0617

C[C@@H]1COCCN1c1cc(C2(S(C)(=O)=O)CC2)nc(-c2cccc3[nH]ccc23)n1
OMR-Perf [1]: 0.468
Prob-Test [2]: -0.137
Prob-Naive [3]: -1.03
Prob-Train [4]: 0.0336

CCOC(=O)n1ccn(C)c1=S [Carbimazole]
OMR-Perf [1]: -0.255
Prob-Test [2]: 0.124
Prob-Naive [3]: 0.585
Prob-Train [4]: 0.206

COc1ccccc1OCCNCC(O)COc1cccc2[nH]c3ccccc3c12 (stereo not given) [Carvedilol]
OMR-Perf [1]: -1.16
Prob-Test [2]: -1.05
Prob-Naive [3]: 0.0449
Prob-Train [4]: -1.12

NC(=O)c1ncn([C@@H]2O[C@H](CO)[C@@H](O)[C@@H]2O)c1O [Mizoribine]
OMR-Perf [1]: 0.0271
Prob-Test [2]: -0.0911
Prob-Naive [3]: 0.511
Prob-Train [4]: -0.429

CN(C)c1ccccc1CN1CCCN(Cc2ccccc2N(C)C)C1c1ccncc1
OMR-Perf [1]: 0.201
Prob-Test [2]: 0.728
Prob-Naive [3]: 0.511
Prob-Train [4]: 0.405

CSc1ccc2c(c1)N(CCC1CCCCN1C)c1ccccc1S2.Cl (stereo not given) [Thioridazine HCl]
OMR-Perf [1]: -0.701
Prob-Test [2]: -1.27
Prob-Naive [3]: 0.271
Prob-Train [4]: -0.782

COc1cccc(C=NCCN=Cc2cccc(OC)c2[O-])c1[O-].[Cl-].[Mn+3]
OMR-Perf [1]: -0.154
Prob-Test [2]: 0.254
Prob-Naive [3]: 0.153
Prob-Train [4]: 0.404

COc1ccc(-c2ccc3cc(C(=O)O)ccc3c2)cc1C12CC3CC(CC(C3)C1)C2 [Adapalene]
OMR-Perf [1]: 0.145
Prob-Test [2]: 0.357
Prob-Naive [3]: 0.573
Prob-Train [4]: 0.15

CC1=C(CC(=O)O)c2cc(F)ccc2/C1=C\c1ccc(S(C)=O)cc1 (stereo not given) [Sulindac]
OMR-Perf [1]: 0.401
Prob-Test [2]: 0.0757
Prob-Naive [3]: -0.0225
Prob-Train [4]: 0.0865

C#C[C@]1(O)CC[C@H]2[C@@H]3CCC4=CC(=O)CC[C@@H]4[C@@H]3CC[C@@]21C [Norethindrone]
OMR-Perf [1]: -0.467
Prob-Test [2]: -0.738
Prob-Naive [3]: -1.01
Prob-Train [4]: -1.41

Cc1cnc(C(=O)NCCc2ccc(S(=O)(=O)NC(=O)NC3CCCCC3)cc2)cn1 [Glipizide]
OMR-Perf [1]: 0.473
Prob-Test [2]: -0.446
Prob-Naive [3]: 0.26
Prob-Train [4]: 0.213

O=C(c1ccc(C(=O)N2CCC(N3CCCC3)CC2)c(Nc2ccccc2)c1)N1CCC(N2CCCC2)CC1
OMR-Perf [1]: -0.207
Prob-Test [2]: -0.67
Prob-Naive [3]: 0.587
Prob-Train [4]: -0.02

CCn1cc(C(=O)O)c(=O)c2cnc(N3CCCC3)nc21 [Piromidic Acid]
OMR-Perf [1]: 0.201
Prob-Test [2]: 1.48
Prob-Naive [3]: -0.288
Prob-Train [4]: 1.06

CS(=O)(=O)O.CS(=O)(=O)O.N=C(N)Nc1ccc(C(=O)Oc2ccc3cc(C(=N)N)ccc3c2)cc1 [Nafamostat Mesylate]
OMR-Perf [1]: 0.194
Prob-Test [2]: 0.0524
Prob-Naive [3]: -0.414
Prob-Train [4]: -0.985

COc1cc(C)c(/C=C/C(C)=C/C=C/C(C)=C/C(=O)O)c(C)c1C [Acitretin]
OMR-Perf [1]: -0.232
Prob-Test [2]: -1.01
Prob-Naive [3]: -0.0234
Prob-Train [4]: -0.901

COc1ccc(Cl)cc1C(=O)NCCc1ccc(S(=O)(=O)NC(=O)NC2CCCCC2)cc1 [Glyburide]
OMR-Perf [1]: -0.479
Prob-Test [2]: -0.147
Prob-Naive [3]: -0.0545
Prob-Train [4]: -0.219

CC(=O)O.N=C(N)N/N=C/c1c(Cl)cccc1Cl [Guanabenz Acetate]
OMR-Perf [1]: -0.921
Prob-Test [2]: -1.56
Prob-Naive [3]: -0.625
Prob-Train [4]: -3.26

CCN(CC)CCOC(=O)c1ccc(N)cc1.Cl [Procaine HCl]
OMR-Perf [1]: -0.474
Prob-Test [2]: -0.39
Prob-Naive [3]: -0.479
Prob-Train [4]: -0.417

NC(=O)Cc1cccc(C(=O)c2ccccc2)c1N [Nepafenac]
OMR-Perf [1]: -0.521
Prob-Test [2]: -0.148
Prob-Naive [3]: 0.147
Prob-Train [4]: -0.441

CN(Cc1cnc2nc(N)nc(N)c2n1)c1ccc(C(=O)N[C@@H](CCC(=O)O)C(=O)O)cc1 [Methotrexate]
OMR-Perf [1]: -0.958
Prob-Test [2]: -1.24
Prob-Naive [3]: 0.214
Prob-Train [4]: -1.1

O=C(Nc1ccc2c(=O)cc(-c3nnn[nH]3)oc2c1)c1ccc(OCCCCc2ccccc2)cc1 [Pranlukast]
OMR-Perf [1]: 0.0925
Prob-Test [2]: 0.58
Prob-Naive [3]: -0.0984
Prob-Train [4]: 0.717

CCNC1=N[C@@H]2[C@@H](O)[C@H](O)[C@@H](CO)O[C@@H]2S1 [Thiamet G]
OMR-Perf [1]: 0.177
Prob-Test [2]: -0.383
Prob-Naive [3]: 0.312
Prob-Train [4]: -0.0205

C=CC[C@@H]1/C=C(\C)C[C@H](C)C[C@H](OC)[C@@H]2O[C@@](O)(C(=O)C(=O)N3CCCC[C@H]3C(=O)O[C@H](/C(C)=C/[C@@H]3CC[C@H](O)[C@H](OC)C3)[C@H](C)[C@@H](O)CC1=O)[C@H](C)C[C@@H]2OC [Tacrolimus (FK506)]
OMR-Perf [1]: 0.44
Prob-Test [2]: 1.35
Prob-Naive [3]: -0.116
Prob-Train [4]: 1.59

C/C(O)=C(\C#N)C(=O)Nc1ccc(C(F)(F)F)cc1 [Teriflunomide]
OMR-Perf [1]: 0.364
Prob-Test [2]: 0.214
Prob-Naive [3]: -0.269
Prob-Train [4]: 0.0371
